PubChem BioAssay AID504804 – Drosophila RNAi Screening Center | 2011

Purpose: 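dsRNAs that improve Kc cell survival under doxorubicin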 (primary screen)
Cell system: Drosophila Kc cells
Reagent: long dsRNA against Drosophila genes, 0.5 µg dsRNA per well
Duration: 96 h (48 h knock-down, then 48 h drug)
Treatment: doxorubicin 5 µg/ml for 48 h, added 48 h after dsRNA
Measured: 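Luminescent ATP counts per replicate, not normalised, reflecting viable cells after 48 h dsRNA knock-down followed by 48 h of 5 µg/ml doxorubicin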
Scale: raw ATP luminescence: higher = more viable cells, protection from doxorubicin
Rule for the call: 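z-score of 2 or more over plate mean in both duplicates, retained only when retests and separate dsRNAs confirm the protection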
In all, the deposit lists about 19,000 reagents; this is a random part of those with a known target gene and a result. Of all reagents, 47 (0.25%) got an active call. 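Signals are raw, not normalised; exact z-scores behind calls not deposited; actives needed confirmation, so some wells reaching 2 SD are inactive.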 Names joined by + are all predicted targets of the reagent.

gene,dsRNA,"raw ATP luminescence, replicate 1","raw ATP luminescence, replicate 2",Call
CG34135,DRSC12702,27963,54773,inactive
Osi18,DRSC12181,74557,50233,inactive
GstD1,DRSC16683,65380,52743,inactive
CG10340,DRSC14232,48690,52020,inactive
CG4462,DRSC15583,49537,42090,inactive
Ir64a,DRSC09759,70037,80923,inactive
Ir64a,DRSC09760,78580,77823,inactive
CG18480,DRSC01957,70177,74720,inactive
CG12708,DRSC19490,3.78e5,3.36e5,inactive
hng2,DRSC16412,62410,58073,inactive
Rim,DRSC16224,43700,53340,inactive
Rim,DRSC16225,18510,17730,inactive
Rim,DRSC16226,43650,50663,inactive
Rim,DRSC16227,40240,38160,inactive
CG14621,DRSC20635,3.51e5,3.17e5,inactive
rhea,DRSC11300,82727,73243,inactive
wwk,DRSC01941,68017,69213,inactive
Oseg1,DRSC10776,47190,39323,inactive
Mapmodulin,DRSC06956,59723,64450,inactive
CG14829,DRSC10199,85477,67283,inactive
CG42374 + Mettl5,DRSC11085,21820,19497,inactive
CG10418,DRSC09720,66700,54777,inactive
Nprl3,DRSC11044,22960,21243,inactive
CG13676,DRSC10035,59667,66963,inactive
larp,DRSC14728,50670,35790,inactive
larp,DRSC16984,69460,50640,inactive
CG33695 + cana,DRSC01163,2.46e5,1.97e5,inactive
CG33695 + cana,DRSC03503,40373,75590,inactive
eIF4A,DRSC03526,23387,29097,inactive
dila,DRSC06607,48413,98180,inactive
Hecw,DRSC18261,3.81e5,3.66e5,inactive
Hecw,DRSC18276,3.85e5,3.62e5,inactive
nrv2,DRSC00948,2.78e5,2.77e5,inactive
nrv2,DRSC03383,1.03e5,96417,inactive
CG11635 + spaw,DRSC06075,47737,69443,inactive
CG42500,DRSC14822,1.25e5,63950,inactive

The list goes on, starting with the last 8 of the part before.
gene,dsRNA,"raw ATP luminescence, replicate 1","raw ATP luminescence, replicate 2",Call
eIF4A,DRSC03526,23387,29097,inactive
dila,DRSC06607,48413,98180,inactive
Hecw,DRSC18261,3.81e5,3.66e5,inactive
Hecw,DRSC18276,3.85e5,3.62e5,inactive
nrv2,DRSC00948,2.78e5,2.77e5,inactive
nrv2,DRSC03383,1.03e5,96417,inactive
CG11635 + spaw,DRSC06075,47737,69443,inactive
CG42500,DRSC14822,1.25e5,63950,inactive
Sf3b2,DRSC00619,31937,25060,inactive
Su(dx),DRSC00791,1.30e5,79480,inactive
CG42380 + CG42379 + PIG-M + 1 more,DRSC03884,67673,50360,inactive
CG42380 + CG42379 + PIG-M + 1 more,DRSC04580,77863,89297,inactive
Dh44,DRSC12747,73130,65713,inactive
Dh44,DRSC16409,64710,54730,inactive
CG15446,DRSC20518,3.38e5,3.57e5,inactive
Mob4,DRSC04993,68497,57763,inactive
Cys,DRSC16637,98030,65900,inactive
gry,DRSC08028,1.34e5,1.55e5,inactive
gry,DRSC08518,39863,37050,inactive
CG8547,DRSC07211,74577,70507,inactive
Srpk79D,DRSC11668,19970,20227,inactive
Srpk79D,DRSC11856,72553,72533,inactive
CG1441,DRSC06448,80660,52470,inactive
Naa60,DRSC10301,97030,85210,inactive
Su(var)205,DRSC03446,1.07e5,58580,inactive
CG11438,DRSC11660,71007,57730,inactive
Fer1,DRSC12507,52167,64597,inactive
Fer1,DRSC12555,64017,60207,inactive
Vps15,DRSC16553,61513,33800,inactive
